PubChem BioAssay AID1259327, Drosophila RNAi Screening Center – 2017
Test: 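Data from controls in screens of zinc and manganese toxicity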. Cell system: Drosophila S2R+ cells. Reagents: long dsRNA against Drosophila genes. Duration: 5 days (water added on day 4, read one day later). Conditions: water added as vehicle, no metal, one day before read-out. Read-out: 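Total ATP measured by luciferase light, scaled to plate mean, duplicates averaged, then z-scored across plates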. Reading the numbers: ATP z-score: higher = more total ATP than typical wells; ATP luminescence: higher = more total ATP. Rule for the call: 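a hit is any knock-down whose absolute ATP z-score is greater than 1.5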. Calls: active = hit: ATP up or down; inactive = no clear ATP change.
The whole screen tested about 3,100 reagents; shown is a random part of them. Over the whole deposit, 378 (12%) were called active. 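Hits include both directions; z-score sign shows ATP rise or fall; raw luminescence values are not plate-normalised.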 Not stated in the record: the amount of reagent.

gene knocked down	DRSC id	ATP z-score, duplicate mean	ATP luminescence, replicate 1 (RLU)	ATP luminescence, replicate 2 (RLU)	Call
CapaR (GeneID 40393)	DRSC23640	0.676	1.02e6	8.52e5	inactive
CapaR (GeneID 40393)	DRSC39684	-0.179	4.40e5	4.67e5	inactive
nrv2 (GeneID 33953)	DRSC00948	-0.503	6.62e5	7.15e5	inactive
nrv2 (GeneID 33953)	DRSC03383	-0.169	4.44e5	4.92e5	inactive
Recs1 (GeneID 41724)	DRSC16545	-0.347	2.63e5	7.76e5	inactive
Recs1 (GeneID 41724)	DRSC39698	1.17	6.35e5	4.52e5	inactive
Gle1 (GeneID 35849)	DRSC06485	0.908	8.10e5	8.46e5	inactive
Gle1 (GeneID 35849)	DRSC29960	-1.15	4.54e5	5.10e5	inactive
Calx (GeneID 42481)	DRSC13457	-0.291	3.15e5	6.58e5	inactive
Calx (GeneID 42481)	DRSC16599	-0.0915	3.26e5	6.72e5	inactive
Calx (GeneID 42481)	DRSC21850	-1.35	4.54e5	4.76e5	inactive
Calx (GeneID 42481)	DRSC24386	-0.0842	8.53e5	8.26e5	inactive
CG10486 (GeneID 38664)	DRSC09735	0.164	9.12e5	9.22e5	inactive
CG10486 (GeneID 38664)	DRSC39429	-1.21	3.70e5	3.76e5	inactive
CG2061 (GeneID 32042)	DRSC19348	0.311	7.23e5	7.52e5	inactive
CG2061 (GeneID 32042)	DRSC39511	1.8	5.41e5	6.01e5	active
Orai (GeneID 37040)	DRSC22061	0.458	6.04e5	6.33e5	inactive
Orai (GeneID 37040)	DRSC39837	0.751	5.21e5	5.43e5	inactive
Tsp42Ej (GeneID 35620)	DRSC06113	1.94	8.90e5	1.02e6	active
Tsp42Ej (GeneID 35620)	DRSC28269	-1.97	5.94e5	5.78e5	active
CG3690 (GeneID 31047)	DRSC18170	-1.24	5.81e5	6.36e5	inactive
CG3690 (GeneID 31047)	DRSC18641	2.51	7.98e5	7.50e5	active
Ctns (GeneID 42723)	DRSC15175	-1.11	2.87e5	5.44e5	inactive
Ctns (GeneID 42723)	DRSC39640	1.69	5.54e5	6.07e5	active
mdy (GeneID 44887)	DRSC01559	-0.49	7.04e5	6.74e5	inactive
mdy (GeneID 44887)	DRSC02250	0.0807	4.88e5	4.81e5	inactive
CG4942 (GeneID 39044)	DRSC10462	1.12	8.48e5	8.54e5	inactive
CG4942 (GeneID 39044)	DRSC39879	2.23	6.80e5	8.80e5	active
CG31792 (GeneID 35163)	DRSC02604	0.0701	7.40e5	7.28e5	inactive
CG31792 (GeneID 35163)	DRSC39634	-0.506	3.64e5	5.00e5	inactive
Or67d (GeneID 39191)	DRSC10158	-0.799	7.79e5	8.02e5	inactive
Or67d (GeneID 39191)	DRSC39518	-1.02	4.45e5	3.30e5	inactive
Arms (GeneID 37433)	DRSC03856	-0.136	6.44e5	7.37e5	inactive
Arms (GeneID 37433)	DRSC04052	1.45	8.18e5	9.56e5	inactive
TM9SF3 (GeneID 38635)	DRSC09747	0.00966	9.57e5	8.40e5	inactive
CG1213 (GeneID 40728)	DRSC12191	0.535	9.88e5	9.44e5	inactive
Oct-TyrR (GeneID 42452)	DRSC11883	0.264	9.69e5	8.93e5	inactive
Oct-TyrR (GeneID 42452)	DRSC39865	1.7	6.95e5	7.67e5	active
nan (GeneID 39571)	DRSC10551	0.022	9.33e5	8.65e5	inactive
nan (GeneID 39571)	DRSC39690	-0.383	4.32e5	4.46e5	inactive
CG14744 (GeneID 35858)	DRSC06480	0.751	5.93e5	7.82e5	inactive
Gr93b (GeneID 117472)	DRSC22063	-1.94	4.53e5	3.77e5	active
Gr93b (GeneID 117472)	DRSC39438	2.14	6.03e5	5.86e5	active
CG13101 (GeneID 34221)	DRSC02201	0.414	4.27e5	5.95e5	inactive
CG13101 (GeneID 34221)	DRSC39475	-0.169	4.72e5	4.13e5	inactive
Hip14 (GeneID 39747)	DRSC10570	0.137	7.27e5	7.65e5	inactive
CG30043 (GeneID 246412)	DRSC06285	-1.43	5.63e5	4.18e5	inactive
CG30043 (GeneID 246412)	DRSC39455	-0.0903	4.48e5	4.45e5	inactive
CG14223 (GeneID 32972)	DRSC24816	1.88	9.36e5	9.15e5	active
CG14223 (GeneID 32972)	DRSC39909	-1.49	4.48e5	4.67e5	inactive
Gr39a (GeneID 117346)	DRSC01841	-0.94	6.17e5	6.66e5	inactive
Gr39a (GeneID 117346)	DRSC01842	-0.346	6.65e5	7.47e5	inactive
Gr39a (GeneID 117346)	DRSC27181	-1.11	8.50e5	1.02e6	inactive
Icmt (GeneID 39478)	DRSC09834	-0.559	8.48e5	7.98e5	inactive
Icmt (GeneID 39478)	DRSC39884	-1.65	3.82e5	5.11e5	active
Cad86C (GeneID 41302)	DRSC15611	0.284	2.96e5	8.32e5	inactive
Cad86C (GeneID 41302)	DRSC27602	1.01	1.10e6	1.04e6	inactive
Cad86C (GeneID 41302)	DRSC28094	0.699	9.56e5	1.00e6	inactive
CG7881 (GeneID 35521)	DRSC04898	-0.472	5.89e5	5.64e5	inactive
CG7881 (GeneID 35521)	DRSC39816	1.16	5.68e5	5.52e5	inactive
CG42340 (GeneID 7354472)	DRSC18305	1.2	9.70e5	6.90e5	inactive
CG42340 (GeneID 7354472)	DRSC23657	0.496	9.15e5	8.52e5	inactive
Ir94b (GeneID 318728)	DRSC21439	0.408	6.08e5	6.21e5	inactive
Lkr (GeneID 38622)	DRSC09754	0.536	9.97e5	9.37e5	inactive
Lkr (GeneID 38622)	DRSC39496	0.166	4.85e5	4.44e5	inactive
ine (GeneID 33659)	DRSC00822	0.757	4.82e5	5.86e5	inactive
ine (GeneID 33659)	DRSC28874	0.153	8.90e5	7.96e5	inactive
CG32054 (GeneID 326185)	DRSC10684	0.019	9.15e5	8.83e5	inactive
CG32054 (GeneID 326185)	DRSC24449	-2.1	5.64e5	5.76e5	active

Laid out differently: 10 of the entries above.
Arms (GeneID 37433) [DRSC04052] — ATP z-score, duplicate mean: 1.45; ATP luminescence, replicate 1 (RLU): 8.18e5; ATP luminescence, replicate 2 (RLU): 9.56e5; Call: inactive
TM9SF3 (GeneID 38635) [DRSC09747] — ATP z-score, duplicate mean: 0.00966; ATP luminescence, replicate 1 (RLU): 9.57e5; ATP luminescence, replicate 2 (RLU): 8.40e5; Call: inactive
CG1213 (GeneID 40728) [DRSC12191] — ATP z-score, duplicate mean: 0.535; ATP luminescence, replicate 1 (RLU): 9.88e5; ATP luminescence, replicate 2 (RLU): 9.44e5; Call: inactive
Oct-TyrR (GeneID 42452) [DRSC11883] — ATP z-score, duplicate mean: 0.264; ATP luminescence, replicate 1 (RLU): 9.69e5; ATP luminescence, replicate 2 (RLU): 8.93e5; Call: inactive
Oct-TyrR (GeneID 42452) [DRSC39865] — ATP z-score, duplicate mean: 1.7; ATP luminescence, replicate 1 (RLU): 6.95e5; ATP luminescence, replicate 2 (RLU): 7.67e5; Call: active
nan (GeneID 39571) [DRSC10551] — ATP z-score, duplicate mean: 0.022; ATP luminescence, replicate 1 (RLU): 9.33e5; ATP luminescence, replicate 2 (RLU): 8.65e5; Call: inactive
nan (GeneID 39571) [DRSC39690] — ATP z-score, duplicate mean: -0.383; ATP luminescence, replicate 1 (RLU): 4.32e5; ATP luminescence, replicate 2 (RLU): 4.46e5; Call: inactive
CG14744 (GeneID 35858) [DRSC06480] — ATP z-score, duplicate mean: 0.751; ATP luminescence, replicate 1 (RLU): 5.93e5; ATP luminescence, replicate 2 (RLU): 7.82e5; Call: inactive
Gr93b (GeneID 117472) [DRSC22063] — ATP z-score, duplicate mean: -1.94; ATP luminescence, replicate 1 (RLU): 4.53e5; ATP luminescence, replicate 2 (RLU): 3.77e5; Call: active
Gr93b (GeneID 117472) [DRSC39438] — ATP z-score, duplicate mean: 2.14; ATP luminescence, replicate 1 (RLU): 6.03e5; ATP luminescence, replicate 2 (RLU): 5.86e5; Call: active
